# From US20260098007A1, “Compounds and Their Use in Filtering Ultraviolet and/or High-Energy Visible Light” (Soliome Inc., priority 2022, published 2026)
# System: hair keratin (bleached hair tresses)
# Assay: Hair protection against UV, high-pressure differential scanning calorimetry (DSC)
# Conditions: 15% (w/w) solution 0.2 ml/g of hair, total 6 h UV exposure in Q-sun UV chamber, 6 replicates
# Procedure: Hair protection against UV was evaluated using a standard set of high-pressure differential scanning calorimetry (DSC). The experiments were conducted on samples of hair with and without UV exposure and with and without application of compounds according to the invention. This technique was used to detect any deep structural changes in the hair keratin that occurs as a result of damage, such as that caused by UV which may affect the keratin structure, such as changes to the cysteine bond arrangement or the content of strongly bound water (Milczarek, P., M. Zielinski, and M. L. Garcia. “The mechanism and stability of thermal transitions in hair keratin.” Colloid and Polymer Science 270.11 (1992): 1106-1115; Wortmann, Franz-J., Christian Springob, and Gerhard Sendelbach. “Investigations of cosmetically treated human hair by differential scanning calorimetry in water.” Journal of cosmetic science 53.4 (2002): 219-228).
# • 1 Bleached Hair tresses (3 g, 8 inches long, 1 inch wide naturally white hair tresses, 9% bleached) were soaked for 48 h while stirring in 4 liters of de-ionized water. Water was changed twice a day. Hair tresses were pretested using DSC to ensure that damage level across the tresses is similar. […]
smiles,measurement,value
"COC(=O)C(CC(=O)c1ccccc1N)NC(=O)C[N+](C)(C)C (stereo not shown) [Compound 43, 2-((4-(2-aminophenyl)-1-methoxy-1,4-dioxobutan-2-yl)amino)-N,N,N-trimethyl-2-oxoethan-1-aminium]",Mean Denaturation Temperature (Td),145.8 °C
